The supplement of paper PMC10849652
This is one part of the list.

The chains behind the UniProt entries cited, without tags or fusion partners. Where a name states a change or a piece, a line headed by the entry shows the natural chain unless it says otherwise.
UniProt Q8NA75: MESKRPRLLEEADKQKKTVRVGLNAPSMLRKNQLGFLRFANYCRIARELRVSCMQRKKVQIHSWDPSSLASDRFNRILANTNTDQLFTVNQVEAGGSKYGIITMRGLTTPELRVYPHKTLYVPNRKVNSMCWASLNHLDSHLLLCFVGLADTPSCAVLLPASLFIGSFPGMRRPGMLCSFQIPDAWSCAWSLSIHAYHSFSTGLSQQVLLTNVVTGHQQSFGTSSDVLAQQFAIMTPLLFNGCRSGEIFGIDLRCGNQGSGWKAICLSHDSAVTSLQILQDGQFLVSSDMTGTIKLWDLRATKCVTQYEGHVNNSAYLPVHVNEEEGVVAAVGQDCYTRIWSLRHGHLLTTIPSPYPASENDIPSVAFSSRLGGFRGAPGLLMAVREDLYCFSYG
UniProt P32321: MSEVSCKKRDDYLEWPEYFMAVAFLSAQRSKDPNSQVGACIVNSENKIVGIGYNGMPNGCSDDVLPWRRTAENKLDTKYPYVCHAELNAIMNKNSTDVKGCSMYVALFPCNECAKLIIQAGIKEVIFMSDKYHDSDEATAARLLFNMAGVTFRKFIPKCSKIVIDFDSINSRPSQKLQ
UniProt O00399, whole entry, looked up: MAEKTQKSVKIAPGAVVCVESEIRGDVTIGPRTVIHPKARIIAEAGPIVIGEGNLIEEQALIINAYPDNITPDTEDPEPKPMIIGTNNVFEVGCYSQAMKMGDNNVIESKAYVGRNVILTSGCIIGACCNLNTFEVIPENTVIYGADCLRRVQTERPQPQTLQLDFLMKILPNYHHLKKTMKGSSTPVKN
UniProt Q5TAQ9: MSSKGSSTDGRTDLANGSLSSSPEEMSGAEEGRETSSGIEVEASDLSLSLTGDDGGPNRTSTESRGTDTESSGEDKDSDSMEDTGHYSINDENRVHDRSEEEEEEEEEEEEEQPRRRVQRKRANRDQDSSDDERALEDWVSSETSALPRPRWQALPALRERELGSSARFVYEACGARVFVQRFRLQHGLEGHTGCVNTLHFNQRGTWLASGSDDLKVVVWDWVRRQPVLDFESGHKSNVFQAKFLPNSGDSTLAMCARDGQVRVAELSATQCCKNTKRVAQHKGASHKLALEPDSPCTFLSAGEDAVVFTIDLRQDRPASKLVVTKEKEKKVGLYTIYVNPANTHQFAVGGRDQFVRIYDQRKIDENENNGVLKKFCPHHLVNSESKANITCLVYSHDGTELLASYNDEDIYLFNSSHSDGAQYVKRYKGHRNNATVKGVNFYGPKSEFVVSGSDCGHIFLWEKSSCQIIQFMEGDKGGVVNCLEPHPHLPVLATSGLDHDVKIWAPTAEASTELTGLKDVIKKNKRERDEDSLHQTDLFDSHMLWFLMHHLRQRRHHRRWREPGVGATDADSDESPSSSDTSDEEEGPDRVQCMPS
UniProt Q13618, whole entry, looked up: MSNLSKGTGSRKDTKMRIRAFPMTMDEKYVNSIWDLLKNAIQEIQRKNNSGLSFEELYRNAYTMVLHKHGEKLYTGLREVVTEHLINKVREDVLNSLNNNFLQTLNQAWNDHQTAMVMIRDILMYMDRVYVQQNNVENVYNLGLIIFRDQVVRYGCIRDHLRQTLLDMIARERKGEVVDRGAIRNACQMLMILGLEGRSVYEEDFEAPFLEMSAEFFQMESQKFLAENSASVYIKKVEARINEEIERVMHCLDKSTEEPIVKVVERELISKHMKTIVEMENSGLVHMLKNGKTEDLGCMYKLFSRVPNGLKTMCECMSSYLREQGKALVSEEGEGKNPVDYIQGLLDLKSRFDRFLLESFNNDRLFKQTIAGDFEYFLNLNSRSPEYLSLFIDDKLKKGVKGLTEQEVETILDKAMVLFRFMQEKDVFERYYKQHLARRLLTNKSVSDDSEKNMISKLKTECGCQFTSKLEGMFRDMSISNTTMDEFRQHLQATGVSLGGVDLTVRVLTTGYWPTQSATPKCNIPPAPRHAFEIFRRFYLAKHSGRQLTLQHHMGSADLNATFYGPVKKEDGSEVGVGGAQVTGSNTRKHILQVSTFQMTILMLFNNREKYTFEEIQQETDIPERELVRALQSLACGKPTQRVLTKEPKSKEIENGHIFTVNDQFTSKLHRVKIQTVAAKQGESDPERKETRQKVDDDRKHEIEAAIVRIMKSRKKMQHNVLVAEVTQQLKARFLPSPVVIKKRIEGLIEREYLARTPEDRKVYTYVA
UniProt Q9P013: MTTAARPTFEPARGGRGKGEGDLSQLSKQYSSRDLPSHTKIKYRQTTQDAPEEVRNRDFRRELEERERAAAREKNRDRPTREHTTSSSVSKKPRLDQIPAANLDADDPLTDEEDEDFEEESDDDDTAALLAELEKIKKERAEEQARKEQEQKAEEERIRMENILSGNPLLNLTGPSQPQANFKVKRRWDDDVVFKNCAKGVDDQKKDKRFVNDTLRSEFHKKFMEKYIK
UniProt Q96C57: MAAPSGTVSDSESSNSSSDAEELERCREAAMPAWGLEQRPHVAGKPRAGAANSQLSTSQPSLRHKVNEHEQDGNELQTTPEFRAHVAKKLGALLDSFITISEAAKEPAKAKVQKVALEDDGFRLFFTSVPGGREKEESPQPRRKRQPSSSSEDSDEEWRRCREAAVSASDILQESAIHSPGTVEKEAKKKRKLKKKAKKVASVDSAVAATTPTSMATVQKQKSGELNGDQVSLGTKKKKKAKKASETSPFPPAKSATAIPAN
UniProt P21291: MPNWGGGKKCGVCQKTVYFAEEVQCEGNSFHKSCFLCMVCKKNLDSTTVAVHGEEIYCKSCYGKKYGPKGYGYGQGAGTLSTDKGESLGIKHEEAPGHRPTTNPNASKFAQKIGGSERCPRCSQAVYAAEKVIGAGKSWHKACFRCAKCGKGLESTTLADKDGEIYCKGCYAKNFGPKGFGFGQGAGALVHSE
UniProt Q8N465: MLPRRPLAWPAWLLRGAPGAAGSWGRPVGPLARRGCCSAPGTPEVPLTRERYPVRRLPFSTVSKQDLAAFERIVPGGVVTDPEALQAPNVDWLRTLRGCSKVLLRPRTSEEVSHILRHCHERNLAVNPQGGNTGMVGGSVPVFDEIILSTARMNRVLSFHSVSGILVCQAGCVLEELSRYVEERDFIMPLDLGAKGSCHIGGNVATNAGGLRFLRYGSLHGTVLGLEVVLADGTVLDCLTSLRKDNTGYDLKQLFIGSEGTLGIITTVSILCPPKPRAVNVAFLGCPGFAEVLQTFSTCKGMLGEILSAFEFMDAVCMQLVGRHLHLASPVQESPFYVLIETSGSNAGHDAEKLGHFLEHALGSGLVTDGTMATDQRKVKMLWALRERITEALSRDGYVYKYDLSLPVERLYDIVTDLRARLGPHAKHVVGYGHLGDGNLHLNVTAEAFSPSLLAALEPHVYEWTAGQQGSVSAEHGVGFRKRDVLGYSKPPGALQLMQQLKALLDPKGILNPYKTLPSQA
UniProt P32929, whole entry, looked up: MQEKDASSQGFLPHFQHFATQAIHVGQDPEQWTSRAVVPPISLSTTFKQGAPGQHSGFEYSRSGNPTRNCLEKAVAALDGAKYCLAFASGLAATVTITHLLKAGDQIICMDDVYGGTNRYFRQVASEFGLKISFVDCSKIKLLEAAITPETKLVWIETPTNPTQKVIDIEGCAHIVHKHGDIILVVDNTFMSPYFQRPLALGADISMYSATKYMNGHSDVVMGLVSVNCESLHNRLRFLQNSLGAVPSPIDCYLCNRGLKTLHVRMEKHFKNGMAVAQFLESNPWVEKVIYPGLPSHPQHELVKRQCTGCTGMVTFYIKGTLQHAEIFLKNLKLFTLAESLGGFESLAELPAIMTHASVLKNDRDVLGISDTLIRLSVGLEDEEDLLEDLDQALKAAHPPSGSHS
UniProt Q1MSJ5: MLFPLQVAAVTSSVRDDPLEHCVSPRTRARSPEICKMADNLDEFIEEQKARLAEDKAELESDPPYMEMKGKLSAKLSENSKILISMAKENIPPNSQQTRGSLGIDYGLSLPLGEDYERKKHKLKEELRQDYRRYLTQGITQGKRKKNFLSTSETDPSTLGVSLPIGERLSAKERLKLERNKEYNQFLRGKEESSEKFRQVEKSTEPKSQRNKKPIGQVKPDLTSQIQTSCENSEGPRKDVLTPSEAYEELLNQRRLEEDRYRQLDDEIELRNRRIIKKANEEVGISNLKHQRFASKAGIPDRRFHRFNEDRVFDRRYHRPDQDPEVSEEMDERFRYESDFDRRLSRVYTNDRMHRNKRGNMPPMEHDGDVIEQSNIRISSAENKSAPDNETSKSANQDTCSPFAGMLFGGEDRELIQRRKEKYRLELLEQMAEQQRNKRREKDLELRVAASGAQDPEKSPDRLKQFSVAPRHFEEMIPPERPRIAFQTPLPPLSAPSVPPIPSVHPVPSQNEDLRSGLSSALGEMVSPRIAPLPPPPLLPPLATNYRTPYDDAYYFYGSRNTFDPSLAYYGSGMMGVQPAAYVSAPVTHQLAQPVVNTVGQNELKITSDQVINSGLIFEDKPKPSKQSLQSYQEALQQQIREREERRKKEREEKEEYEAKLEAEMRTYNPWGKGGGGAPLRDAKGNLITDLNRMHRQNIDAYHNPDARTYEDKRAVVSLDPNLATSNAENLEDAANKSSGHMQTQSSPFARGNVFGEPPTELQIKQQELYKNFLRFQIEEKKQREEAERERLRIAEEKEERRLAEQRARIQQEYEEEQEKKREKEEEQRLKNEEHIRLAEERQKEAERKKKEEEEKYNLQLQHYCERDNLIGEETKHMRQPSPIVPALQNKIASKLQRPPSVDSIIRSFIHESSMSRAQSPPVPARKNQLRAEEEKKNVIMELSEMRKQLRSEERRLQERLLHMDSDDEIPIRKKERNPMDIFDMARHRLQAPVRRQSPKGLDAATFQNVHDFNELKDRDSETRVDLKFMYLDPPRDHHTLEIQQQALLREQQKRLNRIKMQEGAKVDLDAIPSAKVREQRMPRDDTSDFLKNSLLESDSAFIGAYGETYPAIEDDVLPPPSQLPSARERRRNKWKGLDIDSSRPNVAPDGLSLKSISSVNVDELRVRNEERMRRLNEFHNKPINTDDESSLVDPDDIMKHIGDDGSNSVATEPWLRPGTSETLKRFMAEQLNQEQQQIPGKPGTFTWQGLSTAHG
UniProt Q66K64, whole entry, looked up: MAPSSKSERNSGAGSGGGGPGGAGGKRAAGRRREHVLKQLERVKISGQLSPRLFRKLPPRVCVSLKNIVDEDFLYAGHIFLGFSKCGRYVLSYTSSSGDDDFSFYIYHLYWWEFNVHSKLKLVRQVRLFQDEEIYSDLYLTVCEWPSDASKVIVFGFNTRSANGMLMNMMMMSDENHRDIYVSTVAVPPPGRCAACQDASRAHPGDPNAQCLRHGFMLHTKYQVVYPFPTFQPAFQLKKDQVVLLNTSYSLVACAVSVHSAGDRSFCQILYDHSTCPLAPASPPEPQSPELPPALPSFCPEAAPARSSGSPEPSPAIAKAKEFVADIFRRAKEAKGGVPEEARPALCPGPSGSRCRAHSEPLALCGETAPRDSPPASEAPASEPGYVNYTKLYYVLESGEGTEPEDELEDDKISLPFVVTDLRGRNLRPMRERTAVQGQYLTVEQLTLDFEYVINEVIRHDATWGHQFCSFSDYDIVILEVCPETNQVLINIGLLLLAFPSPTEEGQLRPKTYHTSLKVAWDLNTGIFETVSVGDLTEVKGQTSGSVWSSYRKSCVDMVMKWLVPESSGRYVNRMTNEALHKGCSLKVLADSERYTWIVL
UniProt Q69YN2: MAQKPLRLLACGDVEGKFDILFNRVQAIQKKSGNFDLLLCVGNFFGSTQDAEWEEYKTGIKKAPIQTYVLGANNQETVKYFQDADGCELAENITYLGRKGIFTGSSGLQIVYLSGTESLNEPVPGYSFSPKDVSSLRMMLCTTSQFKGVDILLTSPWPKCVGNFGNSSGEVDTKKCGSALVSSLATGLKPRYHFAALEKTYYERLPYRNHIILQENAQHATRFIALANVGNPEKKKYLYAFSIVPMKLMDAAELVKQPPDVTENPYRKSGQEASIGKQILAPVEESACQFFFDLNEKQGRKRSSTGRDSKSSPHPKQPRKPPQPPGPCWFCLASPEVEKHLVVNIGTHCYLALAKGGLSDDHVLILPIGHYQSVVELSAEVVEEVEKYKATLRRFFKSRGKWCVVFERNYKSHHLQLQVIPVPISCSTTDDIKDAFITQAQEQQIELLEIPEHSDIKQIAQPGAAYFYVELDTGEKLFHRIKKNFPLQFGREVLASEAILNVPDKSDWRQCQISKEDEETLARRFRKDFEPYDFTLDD
UniProt P51397: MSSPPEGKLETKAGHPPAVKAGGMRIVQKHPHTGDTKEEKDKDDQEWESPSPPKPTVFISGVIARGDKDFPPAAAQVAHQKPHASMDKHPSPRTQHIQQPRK

Legend:
Assay in all cases: log2 fold change, soluble protein after heating vs DMSO (PISA); higher = thermal stabilisation; K562 cells, 10 uM, 30 min; active = over 0.2 and 3.5 SD of the protein, either way, in both replicates (recomputed)
saracatinib = compound: CN1CCN(CCOc2cc(OC3CCOCC3)c3c(Nc4c(Cl)ccc5c4OCO5)ncnc3c2)CC1 [saracatinib]
Method in brief: (§1)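 Soluble protein was quantified by TMTpro 16plex LC-MS/MS after channel sums were equalised. It was obtained as the supernatant after 21,000xg for 90 min from pooled aliquots of K562 cells (2×10^6 cells/mL, 10 μM compound, 30 min) heated for 3 min across 48°C-58°C and extracted in PBS with 0.5% NP-40 at 4°C. Thermal stability values are relative to control samples and come from duplicates. They are given as log2 fold changes.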

sotrastaurin = compound: CN1CCN(c2nc(C3=C(c4c[nH]c5ccccc45)C(=O)NC3=O)c3ccccc3n2)CC1 [sotrastaurin]
Method in brief: as §1

alvocidib = compound: CN1CC[C@H](c2c(O)cc(O)c3c(=O)cc(-c4ccccc4Cl)oc23)[C@H](O)C1 [alvocidib]
Method in brief: as §1

Tubastatin A = compound: CN1CCc2c(c3ccccc3n2Cc2ccc(C(=O)NO)cc2)C1 [Tubastatin A]
Method in brief: as §1

[1] = compound: CNC(=O)C1=CC=CC=C1NC2=NC(=NC=C2Cl)NC3=C(C=C(C=C3)N4CCOCC4)OC
Method in brief: as §1

defactinib = compound: CNC(=O)c1ccc(Nc2ncc(C(F)(F)F)c(NCc3nccnc3N(C)S(C)(=O)=O)n2)cc1 [defactinib]
Method in brief: as §1

rucaparib = compound: CNCc1ccc(-c2[nH]c3cc(F)cc4c3c2CCNC4=O)cc1 [rucaparib]
Method in brief: as §1

[2] = compound: CNc1nc(-c2ccc3c(N)n[nH]c3c2)cc(N2C[C@@H](C(=O)NC3CCCCC3)CC[C@H]2C)n1
Method in brief: as §1

encorafenib = compound: COC(=O)N[C@@H](C)CNc1nccc(-c2cn(C(C)C)nc2-c2cc(Cl)cc(NS(C)(=O)=O)c2F)n1 [encorafenib]
Method in brief: as §1

[3] = compound: COC(=O)[C@H](CCSC)NC(=O)C1=C(C=C(C=C1)NC[C@H](CS)N)C2=CC=CC=C2
Method in brief: as §1

[4] = compound: COC1=CC=C(C=C1)CN2C=CC3=C2C=C(C=C3)C(=O)NO
Method in brief: as §1

filanesib = compound: CON(C)C(=O)N1N=C(c2cc(F)ccc2F)S[C@@]1(CCCN)c1ccccc1 [filanesib]
Method in brief: as §1

zotarolimus = compound: CO[C@H]1C[C@@H]2CC[C@@H](C)[C@@](O)(O2)C(=O)C(=O)N2CCCC[C@H]2C(=O)O[C@H]([C@H](C)C[C@@H]2CC[C@H](n3cnnn3)[C@H](OC)C2)CC(=O)[C@H](C)/C=C(\C)[C@@H](O)[C@@H](OC)C(=O)[C@H](C)C[C@H](C)/C=C/C=C/C=C/1C [zotarolimus]
Method in brief: as §1

idasanutlin = compound: COc1cc(C(=O)O)ccc1NC(=O)[C@@H]1N[C@@H](CC(C)(C)C)[C@](C#N)(c2ccc(Cl)cc2F)[C@H]1c1cccc(Cl)c1F [idasanutlin]
Method in brief: as §1

alisertib = compound: COc1cc(Nc2ncc3c(n2)-c2ccc(Cl)cc2C(c2c(F)cccc2OC)=NC3)ccc1C(=O)O [alisertib]
Method in brief: as §1

[5] = compound: COc1cc2nc(-c3cc(F)ccc3O)nc(N[C@@H]3CNC[C@H]3C(C)(C)O)c2cc1OC
Method in brief: as §1

gefitinib = compound: COc1cc2ncnc(Nc3ccc(F)c(Cl)c3)c2cc1OCCCN1CCOCC1 [gefitinib]
Method in brief: as §1

[6] = compound: COc1cccc2cc(-c3nc([C@H]4CC[C@H](C(=O)O)CC4)n4ncnc(N)c34)[nH]c12
Method in brief: as §1

lapatinib = compound: CS(=O)(=O)CCNCc1ccc(-c2ccc3ncnc(Nc4ccc(OCc5cccc(F)c5)c(Cl)c4)c3c2)o1 [lapatinib]
Method in brief: as §1

pictilisib = compound: CS(=O)(=O)N1CCN(Cc2cc3nc(-c4cccc5[nH]ncc45)nc(N4CCOCC4)c3s2)CC1 [pictilisib]
Method in brief: as §1

Measured: log2 fold change

DCAF4L2 (UniProt Q8NA75)
inactive: saracatinib -0.003 | sotrastaurin -0.016 | alvocidib -0.055 | Tubastatin A 0.076 | [1] 0.016 | defactinib 0.033 | rucaparib -0.012 | [2] 0.056 | encorafenib 0.057 | [3] 0.019 | [4] -0.055 | filanesib 0.042 | zotarolimus -0.001 | idasanutlin -0.028 | alisertib -0.057 | [5] 0.092 | gefitinib 0.101 | [6] 0.054 | lapatinib 0.026 | pictilisib -0.01

DCTD isoform 2 (UniProt P32321)
inactive: saracatinib 0.071 | sotrastaurin 0.075 | alvocidib 0.009 | Tubastatin A 0 | [1] -0.04 | defactinib -0.065 | rucaparib 0.008 | [2] -0.036 | encorafenib -0.004 | [3] -0.006 | [4] 0.004 | filanesib -0.005 | zotarolimus 0.011 | idasanutlin -0.063 | alisertib 0 | [5] 0.011 | gefitinib -0.002 | [6] 0.051 | lapatinib -0.009 | pictilisib -0.031

DCTN6 (UniProt O00399)
inactive: saracatinib 0.014 | sotrastaurin 0.035 | alvocidib 0.009 | Tubastatin A 0.02 | [1] -0.009 | defactinib -0.104 | rucaparib 0.014 | [2] -0.059 | encorafenib 0.055 | [3] 0.014 | [4] -0.052 | filanesib 0.019 | zotarolimus 0.002 | idasanutlin 0.025 | alisertib -0.022 | [5] 0.102 | gefitinib -0.057 | [6] 0.043 | lapatinib 0.001 | pictilisib 0.002

DCAF8 (UniProt Q5TAQ9)
inactive: saracatinib 0.019 | sotrastaurin 0.001 | alvocidib -0.053 | Tubastatin A 0 | [1] 0.001 | defactinib -0.085 | rucaparib 0.024 | [2] -0.018 | encorafenib 0.01 | [3] 0.055 | [4] -0.043 | filanesib 0.006 | zotarolimus 0.034 | idasanutlin 0 | alisertib -0.049 | [5] -0.004 | gefitinib -0.027 | [6] 0.011 | lapatinib 0.019 | pictilisib 0.062

CUL3 (UniProt Q13618)
inactive: saracatinib 0.013 | sotrastaurin -0.005 | alvocidib -0.043 | Tubastatin A -0.05 | [1] -0.011 | defactinib -0.052 | rucaparib -0.025 | [2] -0.005 | encorafenib 0.007 | [3] 0.015 | [4] -0.001 | filanesib -0.072 | zotarolimus 0.03 | idasanutlin -0.073 | alisertib -0.006 | [5] 0.002 | gefitinib 0 | [6] 0.012 | lapatinib 0.008 | pictilisib -0.005

CWC15 (UniProt Q9P013)
inactive: saracatinib 0.043 | sotrastaurin 0.094 | alvocidib 0.151 | Tubastatin A -0.044 | [1] -0.053 | defactinib 0.043 | rucaparib 0.001 | [2] -0.077 | encorafenib -0.092 | [3] 0.06 | [4] -0.009 | filanesib 0.029 | zotarolimus -0.075 | idasanutlin -0.02 | alisertib -0.068 | [5] 0.065 | gefitinib -0.01 | [6] 0.065 | lapatinib -0.072 | pictilisib -0.021

CUSTOS (UniProt Q96C57)
inactive: saracatinib -0.02 | sotrastaurin 0.013 | alvocidib -0.008 | Tubastatin A 0.011 | [1] -0.024 | defactinib -0.016 | rucaparib 0.02 | [2] -0.013 | encorafenib -0.013 | [3] -0.025 | [4] -0.049 | filanesib -0.031 | zotarolimus -0.019 | idasanutlin 0.015 | alisertib -0.064 | [5] -0.003 | gefitinib -0.038 | [6] 0.022 | lapatinib 0.005 | pictilisib 0

CSRP1 (UniProt P21291)
inactive: saracatinib 0.047 | sotrastaurin 0.036 | alvocidib -0.006 | Tubastatin A -0.055 | [1] -0.042 | defactinib 0.007 | rucaparib -0.038 | [2] -0.031 | encorafenib -0.033 | [3] 0.014 | [4] 0.09 | filanesib -0.027 | zotarolimus -0.002 | idasanutlin 0.027 | alisertib -0.035 | [5] -0.019 | gefitinib 0.017 | [6] 0.01 | lapatinib -0.007 | pictilisib -0.02

D2HGDH (UniProt Q8N465)
inactive: saracatinib -0.042 | sotrastaurin 0.089 | alvocidib 0.112 | Tubastatin A -0.071 | [1] -0.019 | defactinib 0.024 | rucaparib 0.036 | [2] 0.025 | encorafenib -0.065 | [3] -0.018 | [4] -0.1 | filanesib -0.081 | zotarolimus -0.069 | idasanutlin 0.025 | alisertib -0.1 | [5] 0.061 | gefitinib 0.045 | [6] 0.018 | lapatinib 0.009 | pictilisib -0.044

CTH (UniProt P32929)
inactive: saracatinib 0.079 | sotrastaurin 0.021 | alvocidib -0.024 | Tubastatin A -0.02 | [1] -0.028 | defactinib -0.02 | rucaparib -0.033 | [2] -0.045 | encorafenib 0.034 | [3] -0.004 | [4] 0.055 | filanesib -0.025 | zotarolimus -0.014 | idasanutlin -0.082 | alisertib -0.046 | [5] -0.014 | gefitinib -0.04 | [6] 0.024 | lapatinib 0.018 | pictilisib 0.001

CTBP2 isoform 2 (UniProt P56545)
inactive: saracatinib -0.003 | sotrastaurin 0.075 | alvocidib 0.011 | Tubastatin A 0.003 | [1] -0.057 | defactinib -0.036 | rucaparib -0.082 | [2] -0.03 | encorafenib -0.038 | [3] 0.03 | [4] 0.063 | filanesib -0.022 | zotarolimus -0.001 | idasanutlin -0.014 | alisertib -0.002 | [5] -0.01 | gefitinib 0.039 | [6] 0.01 | lapatinib 0.005 | pictilisib 0.006

CSPP1 (UniProt Q1MSJ5)
inactive: saracatinib 0 | sotrastaurin 0.015 | alvocidib -0.036 | Tubastatin A 0.006 | [1] -0.029 | defactinib 0.01 | rucaparib -0.073 | [2] -0.165 | encorafenib 0.011 | [3] -0.042 | [4] -0.028 | filanesib -0.004 | zotarolimus -0.067 | idasanutlin -0.061 | alisertib 0.095 | [5] 0.05 | gefitinib -0.032 | [6] 0.057 | lapatinib -0.017 | pictilisib 0.019

2 consecutive records already listed:
CSRP1 (UniProt P21291)
inactive: saracatinib 0.047 | sotrastaurin 0.036 | alvocidib -0.006 | Tubastatin A -0.055 | [1] -0.042 | defactinib 0.007 | rucaparib -0.038 | [2] -0.031 | encorafenib -0.033 | [3] 0.014 | [4] 0.09 | filanesib -0.027 | zotarolimus -0.002 | idasanutlin 0.027 | alisertib -0.035 | [5] -0.019 | gefitinib 0.017 | [6] 0.01 | lapatinib -0.007 | pictilisib -0.02

D2HGDH (UniProt Q8N465)
inactive: saracatinib -0.042 | sotrastaurin 0.089 | alvocidib 0.112 | Tubastatin A -0.071 | [1] -0.019 | defactinib 0.024 | rucaparib 0.036 | [2] 0.025 | encorafenib -0.065 | [3] -0.018 | [4] -0.1 | filanesib -0.081 | zotarolimus -0.069 | idasanutlin 0.025 | alisertib -0.1 | [5] 0.061 | gefitinib 0.045 | [6] 0.018 | lapatinib 0.009 | pictilisib -0.044

(next part)

DCAF15 (UniProt Q66K64)
inactive: saracatinib 0.034 | sotrastaurin 0.098 | alvocidib -0.086 | Tubastatin A 0.057 | [1] 0.02 | defactinib -0.05 | rucaparib -0.202 | [2] -0.25 | encorafenib -0.03 | [3] -0.108 | [4] -0.01 | filanesib -0.014 | zotarolimus 0.053 | idasanutlin -0.027 | alisertib -0.07 | [5] 0.094 | gefitinib 0.013 | [6] 0.169 | lapatinib -0.005

DARS (UniProt P14868)
inactive: saracatinib 0.034 | sotrastaurin 0.036 | alvocidib 0.026 | Tubastatin A -0.021 | [1] -0.026 | defactinib 0.047 | rucaparib 0.069 | [2] -0.019 | encorafenib 0.009 | [3] 0.018 | [4] -0.072 | filanesib 0.041 | zotarolimus -0.026 | idasanutlin 0.033 | alisertib -0.067 | [5] 0.006 | gefitinib -0.007 | [6] 0.001 | lapatinib -0.013 | pictilisib 0.002

CWF19L1 (UniProt Q69YN2)
inactive: saracatinib 0.033 | sotrastaurin -0.01 | alvocidib 0.103 | Tubastatin A -0.033 | [1] 0.051 | defactinib -0.004 | rucaparib 0.005 | [2] 0.007 | encorafenib 0.022 | [3] -0.003 | [4] -0.031 | filanesib 0.114 | zotarolimus 0.017 | idasanutlin -0.044 | alisertib -0.077 | [5] 0.054 | gefitinib -0.001 | [6] -0.042 | lapatinib -0.005 | pictilisib -0.026

DAP (UniProt P51397)
inactive: saracatinib 0.039 | sotrastaurin 0.023 | alvocidib -0.002 | Tubastatin A -0.001 | [1] -0.024 | defactinib -0.014 | rucaparib 0.016 | [2] -0.013 | encorafenib 0.022 | [3] 0.023 | [4] 0.192 | filanesib 0.025 | zotarolimus -0.021 | idasanutlin 0.042 | alisertib -0.047 | [5] 0 | gefitinib 0.027 | [6] 0.093 | lapatinib -0.058 | pictilisib -0.008
